{"source": "PubChem BioAssay AID1259308, NCATS – 2017", "test": "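Genes whose loss raises luciferase production in HEK293 cells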 (primary screen)", "cell system": "human HEK293 embryonic kidney cells stably expressing firefly luciferase (HEK-CMV-Luc2-Hygro)", "reagents": "single siRNA against human genes, 0.8 pmol siRNA per well", "duration": "72 h", "read-out": "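Luciferase light (ONE-Glo) measured on one replicate plate set and viability (CellTiter-Glo) on the other, scaled to a negative control siRNA, with robust z-scores and luciferase per cell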", "scale": "total luciferase, z-score and total luciferase, % of control: higher = more reporter protein produced", "call rule": "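Active when the median/MAD z-score for overall luciferase is greater than 3; a gene was taken forward for validation with new siRNAs if at least two of its three siRNAs passed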", "calls": "active = raised luciferase; inactive = no rise", "note": "The deposit covers about 59,000 reagents; below is an unselected part. About 1,510 of them (2.6%) were called active. 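Calls use total luciferase alone and ignore viability, so some active siRNAs may act by altering cell number.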 Reagents against one gene are numbered here. Not all columns of the deposit are shown."}
{"target": "TTC33", "reagent": 1, "total luciferase, z-score": 1.72, "total luciferase, % of control": 116, "Outcome": "inactive"}
{"target": "TTC33", "reagent": 2, "total luciferase, z-score": -0.559, "total luciferase, % of control": 70.8, "Outcome": "inactive"}
{"target": "TTC33", "reagent": 3, "total luciferase, z-score": -0.0952, "total luciferase, % of control": 80, "Outcome": "inactive"}
{"target": "CCDC87", "reagent": 1, "total luciferase, z-score": 1.42, "total luciferase, % of control": 110, "Outcome": "inactive"}
{"target": "CCDC87", "reagent": 2, "total luciferase, z-score": 1.44, "total luciferase, % of control": 110, "Outcome": "inactive"}
{"target": "CCDC87", "reagent": 3, "total luciferase, z-score": -1.98, "total luciferase, % of control": 42.5, "Outcome": "inactive"}
{"target": "TGM4", "reagent": 1, "total luciferase, z-score": 0.171, "total luciferase, % of control": 85.3, "Outcome": "inactive"}
{"target": "TGM4", "reagent": 2, "total luciferase, z-score": 0.513, "total luciferase, % of control": 92.1, "Outcome": "inactive"}
{"target": "TGM4", "reagent": 3, "total luciferase, z-score": 0.675, "total luciferase, % of control": 95.3, "Outcome": "inactive"}
{"target": "MATCAP1", "reagent": 1, "total luciferase, z-score": 2.5, "total luciferase, % of control": 132, "Outcome": "inactive"}
{"target": "MATCAP1", "reagent": 2, "total luciferase, z-score": 3.15, "total luciferase, % of control": 144, "Outcome": "active"}
{"target": "MATCAP1", "reagent": 3, "total luciferase, z-score": 0.101, "total luciferase, % of control": 83.9, "Outcome": "inactive"}
{"target": "ZNF681", "reagent": 1, "total luciferase, z-score": 1.08, "total luciferase, % of control": 103, "Outcome": "inactive"}
{"target": "ZNF681", "reagent": 2, "total luciferase, z-score": -1.03, "total luciferase, % of control": 61.4, "Outcome": "inactive"}
{"target": "ZNF681", "reagent": 3, "total luciferase, z-score": 0.326, "total luciferase, % of control": 88.4, "Outcome": "inactive"}
{"target": "HSD17B10", "reagent": 1, "total luciferase, z-score": -0.165, "total luciferase, % of control": 78.6, "Outcome": "inactive"}
{"target": "HSD17B10", "reagent": 2, "total luciferase, z-score": -0.19, "total luciferase, % of control": 78.1, "Outcome": "inactive"}
{"target": "HSD17B10", "reagent": 3, "total luciferase, z-score": -0.382, "total luciferase, % of control": 74.3, "Outcome": "inactive"}
{"target": "PLEC", "reagent": 1, "total luciferase, z-score": -0.00621, "total luciferase, % of control": 81.8, "Outcome": "inactive"}
{"target": "PLEC", "reagent": 2, "total luciferase, z-score": 1.47, "total luciferase, % of control": 111, "Outcome": "inactive"}
{"target": "PLEC", "reagent": 3, "total luciferase, z-score": -0.739, "total luciferase, % of control": 67.2, "Outcome": "inactive"}

2 entries from above, reduced to “total luciferase, % of control”:
MATCAP1 #1: 132
MATCAP1 #2: 144
